# In patent US11185553B2, “Pharmaceutical composition for preventing or treating ischemic-reperfusion injury comprising bile acids” (priority 2016, dated 2021):
# For at least one compound, name, drawing or mass did not settle the structure.
# Test system: reperfusion injury mouse model
# Assay: Reperfusion injury mouse model, TTC staining of infarcted heart tissue
# Details: 2 mg/kg, injected into left ventricle, 24 hours after reperfusion, FIG. 6A
structure (smiles),measurement,value
C[C@H](CCC(=O)O)[C@H]1CC[C@H]2[C@@H]3CC[C@@H]4C[C@H](O)CC[C@]4(C)[C@H]3C[C@H](O)[C@]12C [deoxycholic acid],"TTC staining of heart tissue (living red, infarcted white)",mostly reddish with almost no white staining
